Results published in the supplement of paper PMC10077471.
Over roughly 1,900 compounds, “excess over highest single agent (ExcessHSA) synergy score, 6x6 matrix” has its median near -83; the lowest 2% begin near -370. This is one part of the list.

System: NCI-H446
Assay: excess over highest single agent (ExcessHSA) synergy score, 6x6 matrix; higher = less synergy (more negative = stronger synergy)
Settings: 72 h; CellTiter-Glo viability

Going from O=C1CCC[C@@H]2[C@H]3CCCN4CCC[C@@H](CN12)[C@@H]34 + Cc1sc2c(c1C)C(c1ccc(Cl)cc1)=N[C@@H](CC(=O)OC(C)(C)C)c1nnc(C)n1-2 [NCGC00250412-19] to COc1cc2c(cc1OC)C1CC(=O)C(CC(C)C)CN1CC2 (stereo not drawn) + Cc1sc2c(c1C)C(c1ccc(Cl)cc1)=N[C@@H](CC(=O)OC(C)(C)C)c1nnc(C)n1-2 [NCGC00250412-19], the “excess over highest single agent” value rises from -63.2 to 50.8.

Going from COc1cc2c(Oc3ccc(-c4cnc(Nc5ccc(F)cc5)n(C)c4=O)cc3F)ccnc2cc1OCCCN1CCOCC1 + Cc1sc2c(c1C)C(c1ccc(Cl)cc1)=N[C@@H](CC(=O)OC(C)(C)C)c1nnc(C)n1-2 [NCGC00250412-19] to C#Cc1cccc(Nc2ncnc3cc(OCCOC)c(OCCO)cc23)c1 + Cc1sc2c(c1C)C(c1ccc(Cl)cc1)=N[C@@H](CC(=O)OC(C)(C)C)c1nnc(C)n1-2 [NCGC00250412-19], the “excess over highest single agent” value rises from -230 to -46.8.

First: OC[C@H]1O[C@@H](O[C@@H]2[C@@H](CO)O[C@](O)(CO)[C@H]2O)[C@H](O)[C@@H](O)[C@H]1O + Cc1sc2c(c1C)C(c1ccc(Cl)cc1)=N[C@@H](CC(=O)OC(C)(C)C)c1nnc(C)n1-2 [NCGC00250412-19]
Second: COc1cccc2c1C(=O)c1c(O)c3c(c(O)c1C2=O)C[C@@](O)(C(=O)CO)C[C@@H]3O[C@H]1C[C@H](N)[C@@H](O)[C@H](C)O1 + Cc1sc2c(c1C)C(c1ccc(Cl)cc1)=N[C@@H](CC(=O)OC(C)(C)C)c1nnc(C)n1-2 [NCGC00250412-19]
The “excess over highest single agent” value of the first is higher: 48.6 for the first, -433 for the second.

Going from CC(=O)O/N=C1/C(c2c(O)[nH]c3cc(Br)ccc23)=Nc2ccccc21 + Cc1sc2c(c1C)C(c1ccc(Cl)cc1)=N[C@@H](CC(=O)OC(C)(C)C)c1nnc(C)n1-2 [NCGC00250412-19] to CCOc1cc(C(=O)Nc2ccc(Cl)c(-c3nc4ccccc4[nH]3)c2)cc(OCC)c1OCC + Cc1sc2c(c1C)C(c1ccc(Cl)cc1)=N[C@@H](CC(=O)OC(C)(C)C)c1nnc(C)n1-2 [NCGC00250412-19], the “excess over highest single agent” value falls from 54.4 to -16.

Going from COC(=O)C[C@](O)(CCCC(C)(C)O)C(=O)O[C@@H]1C(OC)=C[C@]23CCCN2CCc2cc4c(cc2[C@H]13)OCO4 + Cc1sc2c(c1C)C(c1ccc(Cl)cc1)=N[C@@H](CC(=O)OC(C)(C)C)c1nnc(C)n1-2 [NCGC00250412-19] to COC[C@H]1OC(=O)c2coc3c2[C@@]1(C)C1=C(C3=O)[C@@H]2CCC(=O)[C@@]2(C)C[C@H]1OC(C)=O + Cc1sc2c(c1C)C(c1ccc(Cl)cc1)=N[C@@H](CC(=O)OC(C)(C)C)c1nnc(C)n1-2 [NCGC00250412-19], the “excess over highest single agent” value falls from -186 to -484.

First: CC(=O)O[C@H]1C(=O)[C@@]2(C)[C@H]([C@H](OC(=O)c3ccccc3)[C@]3(O)C[C@H](OC(=O)[C@H](O)[C@@H](NC(=O)c4ccccc4)c4ccccc4)C(C)=C1C3(C)C)[C@]1(OC(C)=O)CO[C@@H]1C[C@@H]2O + Cc1sc2c(c1C)C(c1ccc(Cl)cc1)=N[C@@H](CC(=O)OC(C)(C)C)c1nnc(C)n1-2 [NCGC00250412-19]
Second: CN(C(Cc1ccc(OS(=O)(=O)c2cccc3cnccc23)cc1)C(=O)N1CCN(c2ccccc2)CC1)S(=O)(=O)c1cccc2cnccc12 (stereo not drawn) + Cc1sc2c(c1C)C(c1ccc(Cl)cc1)=N[C@@H](CC(=O)OC(C)(C)C)c1nnc(C)n1-2 [NCGC00250412-19]
The “excess over highest single agent” value of the first is lower: -144 for the first, -136 for the second.

Compared with NC(=O)c1cccc(-c2cccc(OC(=O)NC3CCCCC3)c2)c1 + Cc1sc2c(c1C)C(c1ccc(Cl)cc1)=N[C@@H](CC(=O)OC(C)(C)C)c1nnc(C)n1-2 [NCGC00250412-19], Cc1ccccc1C(C(=O)NC1CCCCC1)N(C(=O)Cn1ccnc1C)c1cccc(F)c1 (stereo not drawn) + Cc1sc2c(c1C)C(c1ccc(Cl)cc1)=N[C@@H](CC(=O)OC(C)(C)C)c1nnc(C)n1-2 [NCGC00250412-19] is lower in “excess over highest single agent” value: -129 for the first, -207 for the second.

Going from Cc1[nH]c(=O)c(C#N)cc1-c1ccc2nccn2c1 + Cc1sc2c(c1C)C(c1ccc(Cl)cc1)=N[C@@H](CC(=O)OC(C)(C)C)c1nnc(C)n1-2 [NCGC00250412-19] to Cn1cnc2c(F)c(Nc3ccc(Br)cc3F)c(C(=O)NOCCO)cc21 + Cc1sc2c(c1C)C(c1ccc(Cl)cc1)=N[C@@H](CC(=O)OC(C)(C)C)c1nnc(C)n1-2 [NCGC00250412-19], the “excess over highest single agent” value rises from -204 to 111.

First: CC[C@H](CC#N)OC(=O)N[C@@H](C)c1cccc(NC(=O)Nc2ccc(-c3cnco3)c(OC)c2)c1 + Cc1sc2c(c1C)C(c1ccc(Cl)cc1)=N[C@@H](CC(=O)OC(C)(C)C)c1nnc(C)n1-2 [NCGC00250412-19]
Second: CCCCn1c(=O)n(Cc2ccccc2F)c(=O)c2[nH]c(Cc3ccc(NC(C)=O)cc3)nc21 + Cc1sc2c(c1C)C(c1ccc(Cl)cc1)=N[C@@H](CC(=O)OC(C)(C)C)c1nnc(C)n1-2 [NCGC00250412-19]
The “excess over highest single agent” value of the first is lower: -174 for the first, -144 for the second.

Going from NC(=O)c1cnccn1 + Cc1sc2c(c1C)C(c1ccc(Cl)cc1)=N[C@@H](CC(=O)OC(C)(C)C)c1nnc(C)n1-2 [NCGC00250412-19] to N/C(=N\C(=O)c1nc(Cl)c(N)nc1N)NCc1ccccc1 + Cc1sc2c(c1C)C(c1ccc(Cl)cc1)=N[C@@H](CC(=O)OC(C)(C)C)c1nnc(C)n1-2 [NCGC00250412-19], the “excess over highest single agent” value falls from 81.8 to -90.4.

Compared with Nc1nc(N)c(N=O)c(OCC2CCCCC2)n1 + Cc1sc2c(c1C)C(c1ccc(Cl)cc1)=N[C@@H](CC(=O)OC(C)(C)C)c1nnc(C)n1-2 [NCGC00250412-19], Nc1ccc(-c2ccc3ncc4ccc(=O)n(-c5cccc(C(F)(F)F)c5)c4c3c2)cn1 + Cc1sc2c(c1C)C(c1ccc(Cl)cc1)=N[C@@H](CC(=O)OC(C)(C)C)c1nnc(C)n1-2 [NCGC00250412-19] is higher in “excess over highest single agent” value: -171 for the first, -131 for the second.

CCCCC[C@H](O)/C=C/[C@H]1[C@H](O)CC(=O)[C@@H]1C/C=C\CCCC(=O)O + Cc1sc2c(c1C)C(c1ccc(Cl)cc1)=N[C@@H](CC(=O)OC(C)(C)C)c1nnc(C)n1-2 [NCGC00250412-19] was tested, and the “excess over highest single agent” value was 166.
